No constants are given. Whether binding was seen depends on the method and setting. For some of these results: Binding seen in cells or lysates may run through a third protein. Some results given as binding are weak or reduced against the parent protein; the word gives no strength.
What was measured:
[1] = target: Ubinuclein 1 (UBN1), endogenous in Raji cells (human (endogenous in Raji)) (UniProt Q9NPG3); test: proximity ligation; Duolink in situ PLA on fixed, permeabilised Raji or DT40 ψV KO cells with mouse anti-AID and rabbit anti-UBN1 primary antibodies; confocal microscopy
[2] = target: Ubinuclein 1 (UBN1), endogenous in Raji cells (human (endogenous in Raji)) (UniProt Q9NPG3); test: co-IP; whole-cell extract of Raji or DT40 ψV KO cells cross-linked with 2 mM DSP; lysis in 50 mM Tris-Cl pH 8.0, 150 mM NaCl, 1.0% NP-40 with DNaseI; anti-AID mAb or anti-UBN1 pAb, protein-A agarose; washes with 750 mM NaCl; western blot
His-MBP-UBN1^1-175 = His-MBP-UBN1^1-175 (UniProt Q9NPG3); test: pull-down; purified His-MBP fusion incubated with 1.5 mg whole cell lysate of Raji or DT40 ψV KO in 1X PBS, 6 h at 4 °C; Ni-NTA beads; washes with 200 mM NaCl, 50 mM imidazole; western blot with anti-AID mAb or anti-UBN1 pAb; only the target purified
His-MBP-hAID (human) [3] = target: His-MBP-hAID (human) (UniProt Q9GZX7); test: pull-down; equimolar purified proteins in 200 mM NaCl, 10 mM Tris-Cl pH 8.0, 10% glycerol, 0.1% tween 20, 1 mM βME, 20 mM imidazole, 6 h at 4 °C; His-tagged bait on Ni-NTA beads; washes with 50 mM imidazole; western blot with anti-flag or anti-AID antibody; both purified
His-MBP-Flag-UBN1^1-175 = His-MBP-Flag-UBN1^1-175 (UniProt Q9NPG3); test: as above
[4] = target: Activation-induced cytidine deaminase (AID), endogenous in Raji cells (human (endogenous in Raji)) (UniProt Q9GZX7); test: co-IP; whole-cell extract of Raji or DT40 ψV KO cells cross-linked with 2 mM DSP; lysis in 50 mM Tris-Cl pH 8.0, 150 mM NaCl, 1.0% NP-40 with DNaseI; anti-AID mAb or anti-UBN1 pAb, protein-A agarose; washes with 750 mM NaCl; western blot
His-MBP-hAID (human) [5] = target: His-MBP-hAID (human) (UniProt Q9GZX7); test: pull-down; purified His-MBP fusion incubated with 1.5 mg whole cell lysate of Raji or DT40 ψV KO in 1X PBS, 6 h at 4 °C; Ni-NTA beads; washes with 200 mM NaCl, 50 mM imidazole; western blot with anti-AID mAb or anti-UBN1 pAb; only the target purified

By UniProt entry, the sequences of proteins in these tests, tags left out. Where a name states a change or a piece, a line headed by the entry shows the natural chain unless it says otherwise. Residues count along the entry.
UniProt Q9NPG3: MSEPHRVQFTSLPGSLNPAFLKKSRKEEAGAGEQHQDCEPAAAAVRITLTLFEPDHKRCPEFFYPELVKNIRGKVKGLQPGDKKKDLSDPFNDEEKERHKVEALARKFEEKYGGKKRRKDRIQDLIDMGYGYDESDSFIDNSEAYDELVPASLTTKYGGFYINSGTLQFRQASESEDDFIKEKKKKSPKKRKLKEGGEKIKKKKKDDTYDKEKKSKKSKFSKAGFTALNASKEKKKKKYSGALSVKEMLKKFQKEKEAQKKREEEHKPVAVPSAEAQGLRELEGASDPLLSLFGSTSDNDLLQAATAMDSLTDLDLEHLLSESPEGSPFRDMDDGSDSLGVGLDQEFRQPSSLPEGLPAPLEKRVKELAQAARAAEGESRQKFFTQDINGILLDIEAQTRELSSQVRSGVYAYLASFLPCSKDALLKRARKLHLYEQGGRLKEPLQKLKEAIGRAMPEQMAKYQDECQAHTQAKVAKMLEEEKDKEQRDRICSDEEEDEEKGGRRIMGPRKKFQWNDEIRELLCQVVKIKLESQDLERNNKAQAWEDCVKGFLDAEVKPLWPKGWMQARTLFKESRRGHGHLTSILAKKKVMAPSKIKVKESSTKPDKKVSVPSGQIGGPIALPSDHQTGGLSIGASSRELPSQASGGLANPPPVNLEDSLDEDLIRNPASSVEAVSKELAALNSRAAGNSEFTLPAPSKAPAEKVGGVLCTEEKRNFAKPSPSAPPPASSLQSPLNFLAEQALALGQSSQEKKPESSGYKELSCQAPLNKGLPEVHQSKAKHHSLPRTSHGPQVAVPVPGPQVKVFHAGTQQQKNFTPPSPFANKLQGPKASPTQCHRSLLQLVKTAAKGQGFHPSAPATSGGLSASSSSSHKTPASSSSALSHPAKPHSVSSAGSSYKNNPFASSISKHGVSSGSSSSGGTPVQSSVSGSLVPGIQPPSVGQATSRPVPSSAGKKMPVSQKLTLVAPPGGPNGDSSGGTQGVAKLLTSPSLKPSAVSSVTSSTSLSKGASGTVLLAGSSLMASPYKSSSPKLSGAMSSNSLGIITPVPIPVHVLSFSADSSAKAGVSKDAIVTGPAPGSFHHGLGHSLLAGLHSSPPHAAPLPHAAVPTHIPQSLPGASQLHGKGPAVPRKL
His-MBP-Flag-UBN1^1-175: residues 1-175 of Q9NPG3
UniProt Q9GZX7: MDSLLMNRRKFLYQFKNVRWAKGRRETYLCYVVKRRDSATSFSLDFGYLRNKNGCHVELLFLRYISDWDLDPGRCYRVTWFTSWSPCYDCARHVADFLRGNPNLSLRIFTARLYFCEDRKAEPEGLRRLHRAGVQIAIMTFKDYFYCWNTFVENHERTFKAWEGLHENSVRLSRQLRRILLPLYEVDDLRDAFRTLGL

For “Activation-induced cytidine deaminase (AID), endogenous in Raji cells (from UniProt Q9GZX7 1-198) (enzyme)”, the binding [1] was “binds weakly”, the binding [2] was “binds” and the binding (His-MBP-UBN1^1-175) was “binds”.

For “MBP-Flag-UBN1^1-175 (without His-tag) (from UniProt Q9NPG3 1-175) (domain or fragment)”, the binding (His-MBP-hAID (human) [3]) was “binds”.

“MBP-hAID (without His-tag) (from UniProt Q9GZX7 1-198) (enzyme)” was tested, and the binding (His-MBP-Flag-UBN1^1-175) was “binds”.

“Ubinuclein 1 (UBN1), endogenous in Raji cells (from UniProt Q9NPG3 1-1134)” was tested, and the binding [4] was “binds” and the binding (His-MBP-hAID (human) [5]) was “binds”.

Source: article PMC10638239
